The whole screen tested about 53,000 sequences, of which about 3,700 (7%) were called active.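 Rule for the calls: active = gene knockdowns whose robust z-score for IL-1 alpha signal is at least 2 or at most -2, so actives lie on both sides; inactive = the rest.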 The list shows a part of the results.
assay: Components of the Cytosolic LPS Sensing Pathway: Gene Identification via Genome-wide siRNA Screen; conditions: RAW264.7 macrophages, IL-1a HTRF, actives lie on both sides, screened at 100 nM (by protocol), cells primed 5 h with Pam3CSK4 first;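 note: robust z of the log signal after scaling to non-targeting control siRNA wells of the plate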
In short: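 RAW264.7; siRNA 100 nM final, RNAiMAX, 48h 37 degrees C; Pam3CSK4 5 h; LipidA + TransIT-TKO 24 h; IL-1a HTRF; CellTiter-Glo viability; robust z vs negative-control median.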

z-score, inactive:
GGAAAGGUCAAGCUGGUUCTT against Tm9sf3 0.111
GGCAAUUUAAGAAAGAUGUTT against Cep68 -0.702
CCUCAUUGUGGUUACCCUCTT against Olfr93 -0.654
GGACAGUACGCAAAGACCUTT against Rxra -0.847
GCCUAAGUUCAUUCUGAAATT against Ccdc137 0.31
GGCUUAGAGAAACUCUAGATT against Nacc1 1.3
GGGUUGGAUUCCUACCCAGTT against AA986860 0.775
GGAUGUCACUGAAAUUGCCTT against Gas2l1 -1.37
CCCGUUGCAUGUUAUAUGCTT against Gtpbp3 0.0974
GCGAGUCAUACCAAUUAGATT against Trmt2a -0.128
GGUUCUGGAGAACAGAGUCTT against 4930483J18Rik -0.44
GCUUUAUCUAUUUCACCAATT against Olfr1442 0.235
CGUUUAUGUGUAUUAACCATT against Ppid -0.907
GCUUAAAACAGACCAUUUUTT against Ttc32 1.07
GGGAAUUCUAUUCAACACUTT against Rps6ka5 -0.478
GGAUUCUUGGUAGCCCAAATT against Magea2 0.297
GGAAGAGAUAUCUGAACUUTT against Angel1 1.03
CGUAUGGAUGGAAUACAAUTT against Rap2b 1.66
GCGUGUGAUUAAUAAAGUUTT against Vps54 0.0253
GGGCUGAAAGACUCAAAGCTT against Olfr577 -0.974
GCAAAGAAGCUCUUUAGAGTT against Hoxc5 0.455
GCCAUUAUAUAGUCCUACCTT against Klf1 0.719
GGAAUUCCAGUUUCUUCAATT against Tle2 0.356
GCCAUAUGCUAUCAAGAUGTT against Pskh1 -0.715
GGAGAGAUUAAUUUCUGUATT against 4430402I18Rik 0.485
GGAAUUAGAGAACUUAGUUTT against Gclm 0.562
GGAAAGGUGUAUUCUUAAUTT against Bhlhe22 1.43
GGACAAUCCUGUCUUCCAGTT against Paox 0.964
GGUUUCGUACCAUGAAACATT against Stx2 -0.147
GGCAGAAAACAAGAUAAAGTT against Eif4h -0.325
GGAGACAGAAUUCAAAACUTT against P2ry1 0.0725
GGAAGAUAACCAUUUUGAATT against Setd4 -0.777
CCCUACAGGAAGUCACUCUTT against Gsdma 0.226
CGUAGAAAGCUCAUUAUUUTT against Clmn -0.142
GGAAGGUGAUGAAGGAUCGTT against Fam118a 0.0491
GGCUUUGUGGAUUUUGAAGTT against Cabp4 -1.2
GGAAAAGGUCCUGUGCUGUTT against Abhd2 1.68
CGGAUAUCACUCUGAGAAGTT against Loxl4 -0.816
CCCAUUGAACAGGAUGUUATT against Coq9 -0.292
CCAGUCACUAUUUGAGUGUTT against Erg 1.9
GGAAAGACCAAAUCAGAUGTT against Arid5a 0.597
GGCUAAGACUCUCUGAAAUTT against F2rl1 0.926
GCUCUGUUACUAUUUGAAUTT against Cts6 0.137
GCACUGUCAUGAAAUAUUUTT against Adgrv1 -0.618
CCUGACCAAUGAAACCUUATT against Il22ra2 0.896
GGAAUAUAGAAGACUAAGUTT against Gm5114 0.237
GCUGACUGAAUCACAAGCCTT against BC024139 0.841
CGACAGUGAAUGCGCUAAGTT against Slc7a9 -0.218
GAUUUUCUGUAUCCAUCUATT against Olfr725 0.0676
GGCAGAAGAGCAGUCUGAATT against Umodl1 0.135
GGCGCAGACACUCAGUUUGTT against Cpped1 0.57
GGAAACUGUCAUCGAUAGGTT against Dlgap4 0.832
GGACAACAUAGCAAGAUUUTT against Ptpn7 0.0731
CCUGAUAUACCAGCCACCGTT against Pex2 -0.319
CCGCCUCCUGACAAAAGUGTT against Trim17 0.207
GGCAUGGUUUGGAUUUGCGTT against Camk2b 0.353
UCUCCUACCUAUGCACAUATT against Panx2 -0.925
CCGACCACUACACAAGCCUTT against Olfr449 -0.203
GGACGAUAAGCUUAGCCCUTT against Nfkbib 0.179
GCCCAUGAAAGAUGAUAUCTT against Ak2 -0.0952
GCAUAUGACCUAAGAGUGATT against Slc6a7 0.55
GCUAUAGGCAAUGUGAUCUTT against Btnl1 -1.86
CCUUCUCCUGAAGAAUUGATT against Smagp -0.223
GGUCAGCCUAAGAAUGUACTT against Prss28 -1.14
CGUAGGCACCUAUGGUAUATT against H2-Aa -0.175
CGUUCCAUCUCUAACUGGATT against Rhox3a 0.431

No new results follow: entries from further up.
z-score, inactive:
CGUAGAAAGCUCAUUAUUUTT against Clmn -0.142
GGAAGGUGAUGAAGGAUCGTT against Fam118a 0.0491
GGCUUUGUGGAUUUUGAAGTT against Cabp4 -1.2
GGAAAAGGUCCUGUGCUGUTT against Abhd2 1.68
CGGAUAUCACUCUGAGAAGTT against Loxl4 -0.816
CCCAUUGAACAGGAUGUUATT against Coq9 -0.292
CCAGUCACUAUUUGAGUGUTT against Erg 1.9
GGAAAGACCAAAUCAGAUGTT against Arid5a 0.597
GGCUAAGACUCUCUGAAAUTT against F2rl1 0.926
GCUCUGUUACUAUUUGAAUTT against Cts6 0.137
GCACUGUCAUGAAAUAUUUTT against Adgrv1 -0.618
CCUGACCAAUGAAACCUUATT against Il22ra2 0.896
GGAAUAUAGAAGACUAAGUTT against Gm5114 0.237
GCUGACUGAAUCACAAGCCTT against BC024139 0.841
CGACAGUGAAUGCGCUAAGTT against Slc7a9 -0.218

Following part.

z-score, active:
GGCACUGUAAAUGUACUCATT against Rbak -2.54
GGUCUUGGAGUUGCUAAUUTT against Med4 2.63
